By UniProt entry, the sequences of proteins in these tests, tags left out. Where a name states a change or a piece, a line headed by the entry shows the natural chain unless it says otherwise.
UniProt Q9H063: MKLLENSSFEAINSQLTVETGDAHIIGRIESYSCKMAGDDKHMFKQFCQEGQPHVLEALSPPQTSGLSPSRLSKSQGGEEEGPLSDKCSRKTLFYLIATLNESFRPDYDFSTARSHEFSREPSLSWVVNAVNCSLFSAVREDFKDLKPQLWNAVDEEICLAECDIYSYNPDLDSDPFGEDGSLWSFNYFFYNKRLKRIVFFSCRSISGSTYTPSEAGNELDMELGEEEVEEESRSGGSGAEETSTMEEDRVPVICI

In article PMC4480132:

Target: MAF1 (His-tagged, Fitzgerald 80R-1955) (UniProt Q9H063)
Assay: competition with a labelled probe
Conditions: unlabeled self, 200 ng vs 40 ng probe; IP-qPCR: 20 mM HEPES pH 7.6, 150 mM NaCl, 0.25 mM EDTA, 10% glycerol, 0.2% NP40, 1 mM DTT, 200 ng BSA, 50 ul, 20 ng DNA, 400 ng MAF1, 4 C/ice; commercial protein; protein details: His6; label: 5' biotin (probe), unlabeled as self competitor

## AATCAACAACTTTGTATACTTAAGTTCAGTGGACCTCAATTTCCTCATCTGTGAAATAAA (double strand) [p21 A-box probe (CDKN1A MIR3)]
  binding result: binds

The exact form of at least one protein or probe is not confirmed. At least one verdict was read from the data and is not stated in words by the source.
